Results as given in doi:10.1101/2023.11.06.565760.
The exact form of at least one protein or probe is not confirmed. Negatives hold for the conditions tested. At least one verdict rests on a figure or table, not on a statement of the authors. Weaker means in comparison with the reference protein, sequence or condition of that experiment.

System: mv4Int(369aa)
Assay: EMSA
[1] = stabilises binding to labelled COC' (N1)
[2] = no effective stabilisation of labelled COC' (N1) binding
[3] = no stabilised C3 with labelled COC' (N1)

Question: Does “TTTTTAACTAGAAAATAACTAGAAAGCGACCGAGCGGTCG (double strand) [P'1P'2 (P'3 replaced)]” bind [1]?
Answer: binds

Question: Does “GCCGACCGAGCGGGCGGCACGCTGAGAGCTAGTTAATAGA (double strand) [P'3 only]” bind [2]?
Answer: no binding

Question: Does “TTTTTAACTAGAAAATAACTAGAAAGAGCTAGTTAATAGA (double strand) [P'1P'2P'3]” bind [1]?
Answer: binds

Question: Does “GCCGACCGAGCGGAATAACTAGAAAGAGCTAGTTAATAGA (double strand) [P'2P'3 (P'1 replaced)]” bind [2]?
Answer: no binding

Question: Does “GGTATTGTTCAAATCCTGTACTCTCCTTGCGTAAC (double strand) [BOB' WT attB 35 bp]” bind (with unlabelled P'1P'2, same efficiency as core-attP)?
Answer: binds

Question: Does “CACGTCGTGATCAACTAGATTCGACCGAGCGGACCACGTC (double strand) [P1 only]” bind [2]?
Answer: no binding

Question: Does “TTTTTAACTAGAACGACCGAGCGGAGAGCTAGTTAATAGA (double strand) [P'1P'3 (P'2 replaced)]” bind [2]?
Answer: no binding

Question: Does “TTTTTAACTAGAACGACCGAGCGGAGGCGGCACGCTGTCG (double strand) [P'1 only]” bind [2]?
Answer: no binding

Question: Does “GTTTTTAACTAGAAAATAACTAGAATTC (double strand) [P'1P'2 28 bp]” bind (stabilises complexes with labelled COC' (N1))?
Answer: binds

Question: Does “CACGTCGTGCGACCGAGCGGTGCGGCACGCTGACCACGTC (double strand) [No P site]” bind [2]?
Answer: no binding

Question: Does “CACGTCGTGCGACCGAGCGGTTTTAACTAGAAACCACGTC (double strand) [P2 only]” bind [2]?
Answer: no binding

Question: Does “CACGTCGTGCTCAACTAGAGTCTTAACTAGAGACCACGTC (double strand) [P1P2 9-bp sites]” bind [3]?
Answer: no binding

Question: Does “CACGTCGTTTTTAACTAGAAAATAACTAGAATTCCACGTC (double strand) [P'1P'2 40 bp]” bind (with labelled COC' (N1), C2*/C3* mobility changed)?
Answer: binds

Question: Which results are given for “CACGTCGTTTTTAACTAGAAAATAACTAGAATTCCACGTC (double strand) [P'1P'2 40 bp, Cy3]”?
Answer: binding result (with unlabelled COC' DNA): binds; binding result (without COC', no stable binding): binds more weakly

Question: Does “GCCGACCGAGCGGAATAACTAGAAAGGCGGCACGCTGTCG (double strand) [P'2 only]” bind [2]?
Answer: no binding

Question: Does “GGTATTGGAAAGAACCTGTACTCTCCTTGCGTAAC (double strand) [COC' WT core-attP 35 bp]” bind (no arm-site DNA, faint bands and smear, 25 pmol mv4Int)?
Answer: binds more weakly

Question: Does “GGTATTGGAAAGAACCTGTACTCTCCTTGCGTAAC (double strand) [COC' WT core-attP 35 bp]” bind (with unlabelled P'1P'2 (N6 or N7), C1, C2, C3)?
Answer: binds

Question: Does “CACGTCGTGATCAACTAGATTTTTAACTAGAAACCACGTC (double strand) [P1P2 11-bp sites]” bind [1]?
Answer: binds

Question: Does “CACGTCGTGCCGAACTAGGGTCCGAACTAGGGACCACGTC (double strand) [P1P2 6-bp sites]” bind [3]?
Answer: no binding
